# Test results from PubChem BioAssay AID504834 (National Center for Advancing Translational Sciences (NCATS), 2011).
# About 22,000 (6.9%) of roughly 320,000 compounds were called active. Inconclusive means that the source gave no clear call. Such entries were picked first, then a sample of the others. Calls come from the whole dose curve; as a rule, active = well fitted inhibition curve with a large enough effect; inconclusive = small, poorly fitted or top-dose-only effect, or another doubt; inactive = no such curve, though single readings can be large or run the other way. A potency beside an inconclusive call is a rough fit, not a confirmed value.
# Test: Primary qHTS for delayed death inhibitors of the malarial parasite plastid, 96 hour incubation
# Conditions: P. falciparum luciferase reporter growth; series mostly up to 28.7 µM
# Outline: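 Two parasite generations (96 h, 37 C, 5% CO2) of compound exposure in infected erythrocytes (0.05% parasitemia, 2% hematocrit). Luciferase-reporter P. falciparum; decreased luminescence indicates inhibited growth, aimed at apicoplast-acting delayed death.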
# % is set by controls: 0 for no effect and ±100 for the full control effect; potency is the fitted concentration of half-maximal effect.
Structure (SMILES),Potency,"activity change, negative = inhibition"
Cc1ccsc1C(=O)N1CC(=O)Nc2ccccc21,"inconclusive: 0.415 µM [inhibitor, full curve, poor fit]",–
Cc1ccc(S(=O)(=O)NCc2cn3ccsc3n2)c(C)c1,"inconclusive: 8.28 µM [inhibitor, partial curve, poor fit]",–
COc1cc2c(cc1NC(=O)c1cccnc1)oc1ccccc12,inactive,–
O=C(O)CCCCCCCCc1cn(Cc2ccc(C(=O)c3ccccc3)cc2)nn1,"inconclusive: 20.8 µM [inhibitor, partial curve, poor fit]",–
Cc1cc(C)n(-c2nc(NCC3CCCO3)c3c4c(sc3n2)COC(C)(C)C4)n1 (centres undefined),active: 2.33 µM,–
COc1cccc(CN(c2ccc3c(c2)CCC3)S(=O)(=O)c2ccc(-n3cnnn3)c(OC)c2)c1,"inconclusive: 18.5 µM [inhibitor, single point]",–
O=C(CCc1ccccc1)N/N=C\c1cc2c(cc1Br)OCO2,"inconclusive: 16.5 µM [inhibitor, single point]",–
CC1CCN(C(=O)CCc2ccc(Oc3cc([N+](=O)[O-])cc([N+](=O)[O-])c3)cc2)CC1,"inconclusive: 0.37 µM [inhibitor, full curve, poor fit]",–
N#Cc1c(C(F)(F)F)cc(-c2cccs2)nc1SCc1ccc(Cl)nc1,"inconclusive: 0.0074 µM [inhibitor, full curve, poor fit]",–
O=C(O)c1ccc2nc(-c3ccccc3)sc2c1,"inconclusive: 14.7 µM [inhibitor, single point]",–
CC/C(=N/Nc1cccc(Cl)c1)c1cnnc(SC)n1,"inconclusive: 6.57 µM [inhibitor, single point]",–
CC1(C)CN(c2ccc(N3CC(C)(C)C3=O)cc2)C1=O,inactive,–
Cc1cccc(N2CC(c3nc4ccccc4[nH]3)CC2=O)c1 (centres undefined),–,inactive: -36.7% [at 5.75 µM]
O=C(CSc1nc(O)cc(=O)[nH]1)N1CCOCC1,inactive,–
COC(=O)C1=C(c2ccccc2OCc2ccccc2)C[C@@H]2CC[C@H]1N2C(=O)NCc1cccc(F)c1,"inconclusive: 2.08 µM [inhibitor, partial curve, poor fit]",–
CCN(CC(=O)Nc1cc(Cl)ccc1C)C(=O)c1cc(S(=O)(=O)N2CCCCCC2)ccc1OC,"inconclusive: 1.65 µM [inhibitor, partial curve, poor fit]",–
CC(=O)Nc1cc(C(=O)N2CCCC2)ccc1S(=O)(=O)c1ccc(C)cc1,active: 1.17 µM,–
COc1ccccc1NC(=O)CSc1nnc(-c2ccc(C)cc2)o1,"inconclusive: 9.28 µM [inhibitor, partial curve]",–
O=C(NCCc1ccc(Cl)cc1)C1CCN(S(=O)(=O)c2ccc(-n3cnnn3)cc2)CC1,"inconclusive: 10.4 µM [inhibitor, single point]",–
CN(Cc1ccc(Cl)s1)C(=O)CCl,active: 1.47 µM,–
Cc1ccc2[nH]c(=O)c(CN(CCCN3CCOCC3)C(=O)Nc3cccc(Cl)c3)cc2c1,inactive,–
Cc1ccc(NC(=O)COC(=O)c2ccc3c(=O)n4c(nc3c2)CCC4)c(Br)c1,inactive,–
Cc1ccc(OCc2nnc(SCC(=O)Nc3ncc(C)s3)o2)cc1,"inconclusive: 14.7 µM [inhibitor, partial curve, poor fit]",–

# Not a retest: 2 of the compounds above.
Structure (SMILES),Potency,"activity change, negative = inhibition"
N#Cc1c(C(F)(F)F)cc(-c2cccs2)nc1SCc1ccc(Cl)nc1,"inconclusive: 0.0074 µM [inhibitor, full curve, poor fit]",–
O=C(O)c1ccc2nc(-c3ccccc3)sc2c1,"inconclusive: 14.7 µM [inhibitor, single point]",–

# (more compounds)

Structure (SMILES),Potency,"activity change, negative = inhibition"
COc1ccc(OCCn2cc(C=O)c3ccccc32)cc1,"inconclusive: 18.5 µM [inhibitor, single point]",–
CCN(CC(=O)Nc1cccc(S(=O)(=O)N2CCOCC2)c1)Cc1ccccc1,"inconclusive: 6.57 µM [inhibitor, partial curve, poor fit]",–
CCCCOc1ccc(C(=O)Nc2cccc(C)n2)cc1,inactive,–
O=C1c2[nH]nc(-c3ccccc3O)c2C(c2cccc(O)c2)N1Cc1ccco1 (centres undefined),"inconclusive: 9.28 µM [inhibitor, single point]",–
Cc1ccc(CNC(=O)c2ccc(N3CCC4(CC3)CC(c3ccccc3)=NO4)c(NC(=O)c3ccc(Cl)c([N+](=O)[O-])c3)c2)cc1,"inconclusive: 18.5 µM [inhibitor, single point]",–
O=C(C1CCC1)N1CCN(c2ccc(Cl)cc2)CC1,active: 7.38 µM,–
COc1ccc2c(c1)c1ncn(CCN3CCCCC3)c(=O)c1n2C,"inconclusive: 18.5 µM [inhibitor, single point]",–
CSCCC(NS(=O)(=O)c1ccc(C)cc1)C(=O)NCCc1c[nH]c2ccccc12 (centres undefined),"inconclusive: 20.8 µM [inhibitor, partial curve, poor fit]",–
CCNc1nc(NCC)n2c(SCC(=O)Nc3c(C)cccc3C)nnc2n1,"inconclusive: 18.5 µM [inhibitor, single point]",–
CCCCN(C(=O)C1CCCC1)C1CCS(=O)(=O)C1 (centres undefined),inactive,–
CN1C(=O)CN=C(c2ccc(Cl)cc2)c2cc(Cl)ccc21,"inconclusive: 11.7 µM [inhibitor, partial curve, poor fit]",–
O=C(NC(=S)Nc1cccc(NC(=O)c2ccccc2)c1)c1cccc([N+](=O)[O-])c1,"inconclusive: 18.5 µM [inhibitor, single point]",–
Cc1cc(C)c(NC(=O)Cn2c(=O)n(Cc3ccco3)c(=O)c3ccccc32)c(C)c1,inactive,–
O=C(CNCCCO)Nc1cc(C(F)(F)F)cc(NC(=O)CNCCCO)c1Cl,"inconclusive: 0.928 µM [inhibitor, partial curve, poor fit]",–
O=C(Cn1cc([N+](=O)[O-])cn1)Nc1cccnc1,"inconclusive: 14.7 µM [inhibitor, partial curve, poor fit]",–
O=C(O)CCCC(=O)Nc1nc2n(n1)C(c1ccc(F)cc1)CC(c1ccc(Cl)cc1)N2 (centres undefined),–,inactive: 0.758% [at 5.75 µM]
CC(C)C(NC(=O)c1ccc2c(c1)OCO2)C(=O)N/N=C/c1cccs1 (centres undefined),"inconclusive: 3.7 µM [inhibitor, single point]",–
FC(F)(F)C(Oc1nc(NC2CCCCC2)nc(N2CCOCC2)n1)C(F)(F)F,"inconclusive: 18.5 µM [inhibitor, single point]",–
Cc1ccc(NC(=O)CN2C(=O)N/C(=C/c3ccc(C)s3)C2=O)cc1,"inconclusive: 8.28 µM [inhibitor, single point]",–
O=C(CCN1CCN(C/C=C/c2ccccc2)CC1)Nc1ccccc1F,"inconclusive: 0.0233 µM [inhibitor, full curve, poor fit]",–
COCCC(=O)N1CCC(Oc2ccc(C(=O)N3CCCCC3CCO)cc2)CC1 (centres undefined),active: 4.65 µM,–
O=C(NCC1CCCO1)c1ccc([N+](=O)[O-])s1 (centres undefined),"inconclusive: 4.65 µM [inhibitor, partial curve]",–
CCn1c(SCC(=O)N2CCCC2)nc2ccccc2c1=O,"inconclusive: 10.4 µM [inhibitor, single point]",–

Structure (SMILES),Potency,"activity change, negative = inhibition"
O=C(NC(=S)Nc1ccccc1)c1csnn1,"inconclusive: 0.0415 µM [inhibitor, full curve, poor fit]",–
COc1ccc(Cl)cc1C(=O)Nc1nc2ccccc2[nH]1,inactive,–
CC(/C=C/c1ccccc1)=N\Nc1nc(C)cc(C)n1,active: 10.4 µM,–
CCc1nonc1NC(=O)c1oc2c(C)c(C)ccc2c1C,inactive,–
Cc1ccc(NC(=O)c2cccc(S(=O)(=O)N(C)C3CCCCC3)c2)nc1,active: 9.28 µM,–
COC(=O)C1=C(c2ccccc2OCc2ccccc2)C[C@@H]2CC[C@H]1N2C(=O)NCc1ccc(F)cc1,"inconclusive: 3.29 µM [inhibitor, full curve]",–
COc1ccc([C@]23Cc4cc(OC)c(OC)cc4C(O2)c2c(c4ccccc4oc2=O)O3)cc1,"inconclusive: 1.69 µM [inhibitor, single point]",–
O=C1CCCN1CN(C(=O)c1ccccc1)c1ccccc1,"inconclusive: 4.15 µM [inhibitor, single point]",–
CC(N)Cc1ccc(O)cc1 (centres undefined),"inconclusive: 10.7 µM [inhibitor, partial curve, poor fit]",–
CCOC(=O)c1c(NC(=O)CCCN2CCOCC2)sc2c1CC(C)(C)OC2,"inconclusive: 18.5 µM [inhibitor, single point]",–
CCOC(=O)c1cc2c(ccn2C)n1CC(=O)N(Cc1ccccc1)c1ccc(F)cc1,inactive,–
COc1ccccc1-n1cc(C(=O)c2cc(Cl)ccc2O)cc(C#N)c1=O,"inconclusive: 18.5 µM [inhibitor, single point]",–
Cc1ccc(-n2c(SCC(=O)NCCN3C(=O)CSC3=O)nnc2-c2ccccc2F)cc1,active: 14.7 µM,–
Cc1ccc2oc(=O)n(CC(=O)OC(C)C)c2c1,active: 10.4 µM,–
CC(C)c1ccc(Nc2nnc(SCC(=O)Nc3ncc(S(=O)(=O)c4ccc([N+](=O)[O-])cc4)s3)s2)cc1,"inconclusive: 1.65 µM [inhibitor, single point]",–
O=C(CNC(=O)c1ccc(Br)o1)Nc1ccccc1,active: 13.1 µM,–
COc1ccc(NC(=O)CCN2CC(C)OC(C)C2)c(OC)c1 (centres undefined),inactive,–
CC(C)(C)c1ccc(OCCC(=O)OCC(=O)Nc2cccnc2Cl)cc1,inactive,–
COc1ccc(-c2cc(-c3ccc(Cl)cc3)n[nH]2)c(O)c1,inactive,–
O=C(NNC(=O)c1sc2cccc(Cl)c2c1Cl)Nc1ccccc1,inactive,–
Cc1ccc(S(=O)(=O)Nc2ccc(-c3ccc4nncn4n3)cc2)cc1,"inconclusive: 18.5 µM [inhibitor, single point]",–
CCn1c(SCC(=O)Nc2ccc3c(c2)OCO3)nc2c(c1=O)SC(C)C2 (centres undefined),"inconclusive: 10.4 µM [inhibitor, single point]",–
CCc1cccc(NC(=S)N(CCOC)C(C)c2ccco2)c1 (centres undefined),"inconclusive: 18.5 µM [inhibitor, single point]",–
